According to PubChem BioAssay AID248 (DTP/NCI, 2004):
The list does not hold the whole screen: it covers a few groups of compounds. Not every dose and run of a compound is shown. T/C: endpoint of the treated group in % of that of the vehicle group. For survival time, the PubChem record calls one and a half times the control and up active, and a quarter to a half above the control has no call in these data; cut-offs in other NCI protocols can differ. Schedule codes are those of the source, read here as Q, the interval in days (D) or hours (H), X, the number of doses. Counts like (3×) give the number of equal values in this list. Some entries were tested several times; their values stand side by side, smallest first. Some schedules carry Z or #; the key to these is not given.

Tested on: L1210 leukemia ip in BDF1 mice, survival T/C
Assay: NCI In Vivo Anticancer Drug Screen. Data for tumor model L1210 Leukemia (intraperitoneal) in B6D2F1 (BDF1) mice
Settings: T/C endpoint: mean survival time, vehicle: saline, higher T/C = longer survival
[1] = dose: 100.0 mg/kg/injection, schedule: Q01DX001 (ip)
[2] = dose: 200.0 mg/kg/injection, schedule: Q01DX001 (ip)
[3] = dose: 400.0 mg/kg/injection, schedule: Q01DX001 (ip)

In the case of `NCCNCCCl`, the T/C (dose: 2.5 mg/kg/injection, schedule: Q#A X034 (ip)) is reported as 97 % of control, the T/C (dose: 4.7 mg/kg/injection, schedule: Q01DX015 (ip)) is reported as 115 % of control and the T/C (dose: 5.0 mg/kg/injection, schedule: Q01DX017 (ip)) is reported as 101 % of control. The T/C (dose: 5.0 mg/kg/injection, schedule: Q02DX009 (ip)) was 96 % of control, the T/C (dose: 5.0 mg/kg/injection, schedule: Q#A X034 (ip)) was 102 % of control and the T/C (dose: 7.0 mg/kg/injection, schedule: Q01DX015 (ip)) was 112 % of control. For the same compound, the T/C (dose: 9.37 mg/kg/injection, schedule: Q#A X034 (ip)) was 91 % of control, the T/C (dose: 9.4 mg/kg/injection, schedule: Q01DX015 (ip)) was 95 % of control and the T/C (dose: 10.0 mg/kg/injection, schedule: Q01DX017 (ip)) was 98 % of control. For the same compound, the T/C (dose: 10.0 mg/kg/injection, schedule: Q02DX009 (ip)) was 97 % of control, the T/C (dose: 10.0 mg/kg/injection, schedule: Q#A X034 (ip)) was 100 % of control and the T/C (dose: 14.0 mg/kg/injection, schedule: Q01DX015 (ip)) was 125 % of control. The T/C (dose: 16.0 mg/kg/injection, schedule: Q01DX001 (ip)) was 108 % of control, the T/C (dose: 18.0 mg/kg/injection, schedule: Q01DX015 (ip)) was 140 % of control and the T/C (dose: 18.75 mg/kg/injection, schedule: Q01DX017 (ip)) was 94 % of control. For the same compound, the T/C (dose: 18.75 mg/kg/injection, schedule: Q02DX009 (ip)) was 95 % of control, the T/C (dose: 18.75 mg/kg/injection, schedule: Q#A X034 (ip)) was 92 % of control and the T/C (dose: 18.8 mg/kg/injection, schedule: Q01DX015 (ip)) was 140 % of control. The T/C (dose: 20.0 mg/kg/injection, schedule: Q01DX017 (ip)) was 104 % of control, the T/C (dose: 20.0 mg/kg/injection, schedule: Q02DX009 (ip)) was 97 % of control and the T/C (dose: 20.0 mg/kg/injection, schedule: Q#A X034 (ip)) was 97 % of control. For the same compound, the T/C (dose: 28.0 mg/kg/injection, schedule: Q01DX015 (ip)) was 147 % of control, the T/C (dose: 31.0 mg/kg/injection, schedule: Q01DX001 (ip)) was 114 % of control and the T/C (dose: 37.0 mg/kg/injection, schedule: Q01DX015 (ip)) was 180 % of control. For the same compound, the T/C (dose: 37.5 mg/kg/injection, schedule: Q01DX005 (ip)) was 89 % of control, the T/C (dose: 37.5 mg/kg/injection, schedule: Q01DX015 (ip)) was 176 % of control and the T/C (dose: 37.5 mg/kg/injection, schedule: Q01DX017 (ip)) was 93 % of control. For the same compound, the T/C (dose: 37.5 mg/kg/injection, schedule: Q02DX009 (ip)) was 92 % of control, the T/C (dose: 37.5 mg/kg/injection, schedule: Q04DX005 (ip)) was 95 % of control and the T/C (dose: 37.5 mg/kg/injection, schedule: Q#A X034 (ip)) was 93 % of control. For the same compound, the T/C (dose: 40.0 mg/kg/injection, schedule: Q01DX017 (ip)) was 100 % of control, the T/C (dose: 40.0 mg/kg/injection, schedule: Q02DX009 (ip)) was 101 % of control and the T/C (dose: 40.0 mg/kg/injection, schedule: Q#A X034 (ip)) was 100 % of control. The T/C (dose: 56.25 mg/kg/injection, schedule: Q01DX015 (ip)) was 197 % of control, the T/C (dose: 62.0 mg/kg/injection, schedule: Q01DX001 (ip)) was 130 % of control and the T/C (dose: 75.0 mg/kg/injection, schedule: Q01DX001 (ip)) was 96 % of control. For the same compound, the T/C (dose: 75.0 mg/kg/injection, schedule: Q01DX005 (ip)) was 93 % of control, the T/C (dose: 75.0 mg/kg/injection, schedule: Q01DX015 (ip)) was 110 and 273 % of control and the T/C (dose: 75.0 mg/kg/injection, schedule: Q01DX017 (ip)) was 94, 100, 101 % of control. The T/C (dose: 75.0 mg/kg/injection, schedule: Q02DX009 (ip)) was 92 and 100 % of control, the T/C (dose: 75.0 mg/kg/injection, schedule: Q04DX005 (ip)) was 90 % of control and the T/C (dose: 75.0 mg/kg/injection, schedule: Q#A X034 (ip)) was 92 % of control. For the same compound, the T/C (dose: 80.0 mg/kg/injection, schedule: Q01DX017 (ip)) was 105 % of control, the T/C (dose: 80.0 mg/kg/injection, schedule: Q02DX009 (ip)) was 98 % of control and the T/C (dose: 80.0 mg/kg/injection, schedule: Q#A X034 (ip)) was 108 % of control. For the same compound, the T/C [1] was 102 % of control, the T/C (dose: 112.5 mg/kg/injection, schedule: Q01DX015 (ip)) was 141 % of control and the T/C (dose: 125.0 mg/kg/injection, schedule: Q01DX001 (ip)) was 141, 151, 187 % of control. For the same compound, the T/C (dose: 150.0 mg/kg/injection, schedule: Q01DX001 (ip)) was 97 % of control, the T/C (dose: 150.0 mg/kg/injection, schedule: Q01DX005 (ip)) was 92 and 96 % of control and the T/C (dose: 150.0 mg/kg/injection, schedule: Q01DX015 (ip)) was 89 % of control. The T/C (dose: 150.0 mg/kg/injection, schedule: Q01DX017 (ip)) was 93 and 100 % of control (2×), the T/C (dose: 150.0 mg/kg/injection, schedule: Q02DX009 (ip)) was 93 and 102 % of control and the T/C (dose: 150.0 mg/kg/injection, schedule: Q04DX005 (ip)) was 96 and 100 % of control. The T/C (dose: 160.0 mg/kg/injection, schedule: Q01DX017 (ip)) was 114 % of control, the T/C (dose: 160.0 mg/kg/injection, schedule: Q02DX009 (ip)) was 105 % of control and the T/C [2] was 97 % of control. The T/C (dose: 250.0 mg/kg/injection, schedule: Q01DX001 (ip)) was 164 % of control, the T/C (dose: 300.0 mg/kg/injection, schedule: Q01DX001 (ip)) was 93 and 96 % of control and the T/C (dose: 300.0 mg/kg/injection, schedule: Q01DX005 (ip)) was 97 and 110 % of control. For the same compound, the T/C (dose: 300.0 mg/kg/injection, schedule: Q01DX017 (ip)) was 110 % of control (2×), the T/C (dose: 300.0 mg/kg/injection, schedule: Q02DX009 (ip)) was 103 % of control and the T/C (dose: 300.0 mg/kg/injection, schedule: Q04DX005 (ip)) was 96 and 103 % of control. The T/C [3] was 97 % of control, the T/C (dose: 500.0 mg/kg/injection, schedule: Q01DX001 (ip)) was 86 % of control and the T/C (dose: 600.0 mg/kg/injection, schedule: Q01DX001 (ip)) was 96, 98, 103 % of control. The T/C (dose: 600.0 mg/kg/injection, schedule: Q01DX005 (ip)) was 108 % of control, the T/C (dose: 600.0 mg/kg/injection, schedule: Q01DX017 (ip)) was 100 % of control and the T/C (dose: 600.0 mg/kg/injection, schedule: Q02DX009 (ip)) was 102 % of control. For the same compound, the T/C (dose: 600.0 mg/kg/injection, schedule: Q04DX005 (ip)) was 98 % of control, the T/C (dose: 800.0 mg/kg/injection, schedule: Q01DX001 (ip)) was 103 % of control and the T/C (dose: 1200.0 mg/kg/injection, schedule: Q01DX001 (ip)) was 98 % of control.

`ClCCN(Cc1ccccc1)CC1COCO1` (stereo unspecified) was tested, and the T/C (dose: 50.0 mg/kg/injection, schedule: Q01DX001 (ip)) was 96 % of control, the T/C [1] was 93 % of control and the T/C [2] was 100 % of control. The T/C [3] was 100 % of control.
